# Library screening results

From ChEMBL document CHEMBL3988442, “University of Dundee, Small-Polar-MMV Screening Library” (2021).

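Assay on Mycobacterium tuberculosis, filed only as a heat shock assay from Cornell; the read-out is not stated. The concentration is filed as 10 mM, unlikely as a test dose, so the dose is not known. The record gives no direction; compounds that gave an IC50 in retests scored well above the rest, so higher reads as stronger inhibition. Size under these conditions: about 69,000 compounds, about 930 of them at 50% or above in at least one test.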

The filed quantity is “Percent Effect” (%). How 0% and 100% were set is not recorded. Most values in the screen are low, and negative values occur. This is an unselected part of the compounds tested.

With Cc1nn(C)c2c(N3CCN(C(=O)NC4CCCCC4)CC3)ncnc12 the screen gave 5.067%.
With Cc1cc(C)nc(C2CCN(C3CCCCC3)C2)n1 (stereo not shown) the screen gave 2.17%.
With Cn1ccnc1CN1CCN(CC(O)c2ccccc2)CC1 (stereo not shown) the screen gave 1.706%.
With CC(C)N(Cc1ccc(C#N)cc1)C(=O)Nc1ccncc1 the screen gave 3.4%.
With O=C(O)C(F)(F)F.O=C(O)C(F)(F)F.[H][C@@]12CCN(Cc3ccc(F)cc3)[C@]1([H])CC[C@H](COCc1cccnc1)O2 the screen gave 2.88%.
With O=C1CC2(CCN(C(=O)Cc3cc4c(cc3Cl)OCCO4)C2)C(=O)N1 (stereo not shown) the screen gave -0.02167%.
With Cc1cnn(CC2CN(CCCc3nc4ccccc4o3)CCO2)c1 (stereo not shown) the screen gave -6.41%.
With COc1ccccc1C(=O)NC(CC(=O)O)c1cccs1 (stereo not shown) the screen gave 14.73%.
With O=C(O)C(F)(F)F.[H][C@@]12CCN(C(=O)c3cscn3)[C@@]1([H])CCN2CC1CCOCC1 the screen gave 39.35%.
With c1ncn(Cc2nnc(C3CCN(C4CCOCC4)CC3)n2C2CC2)n1 the screen gave 3.282%.
With CN1C(=O)CCc2cc(NC(=O)C3CC3)ccc21 the screen gave 16.42%.
With CCC(=O)N1CCCC(c2cc(Nc3ncccn3)nc(C)n2)C1 (stereo not shown) the screen gave -22.4%.
With Cc1noc(CCCC(=O)NCC(c2ccco2)N2CCCCC2)n1 (stereo not shown) the screen gave -18.43%.
With CCOc1ncccc1C(=O)N1CCCC(c2nncn2C)C1 (stereo not shown) the screen gave -0.2502%.
With CC(C)(CNc1cccc(Cl)c1)NC(=O)C1CCCN(CC(N)=O)C1 (stereo not shown) the screen gave -16.71%.
With CC(C)N(C)C(=O)C1=NOC2(CCN(C(=O)c3ccccn3)C2)C1 (stereo not shown) the screen gave -26.03%.
With Cc1cnc(C(=O)N2CCC3(CC2)CC(c2ccncc2)C(=O)N3)cn1 (stereo not shown) the screen gave -6.361%.
With O=C(CN1C(=O)CCC1=O)NCC1(O)CCc2ccccc21 (stereo not shown) the screen gave 3.46%.
With O=C(CN1CCOCS1(=O)=O)NCCc1ccc(Cl)cc1 the screen gave -10.87%.
With CC(=O)N1CCCc2sc(C(=O)Nc3ccc(C)nc3)nc21 the screen gave -11.49%.
With COC(=O)c1ccc(N2CCN(Cc3csc(C)n3)CC2)nn1 the screen gave -7.969%.
With CCOc1cc(=O)n2c(c1C(=O)OCc1cccc(C)c1)CCCC2 the screen gave 2.303%.
With COCC(NC(=O)c1cn2ccsc2n1)c1ccnn1C (stereo not shown) the screen gave -39.9%.
With CC(C(=O)N1CCc2ccccc21)N1CCc2cncnc2C1 (stereo not shown) the screen gave 15.61%.
With Cc1ccc(-c2nnc(SCC(=O)O)n2-c2ccccc2)cc1 the screen gave 2.459%.
With CC1=Nc2c(c(O)nn2C(C)C)C(c2cccnc2)S1 (stereo not shown) the screen gave -9.627%.
With COc1cc(C2Nc3cc(Cl)ccc3C3=NCCN32)ccc1O (stereo not shown) the screen gave 8.454%.
With O=C(O)C(F)(F)F.O=C(O)C(F)(F)F.c1ccc(CN2CCc3ncnc(C4CC4)c3CC2)nc1 the screen gave -15.62%.
With O=S(=O)(Cc1cccc(F)c1)Nc1cc(Cl)ccn1 the screen gave 10.32%.
With O=C(CCCc1nnc(-c2ccccc2)o1)N1CCC1 the screen gave 15.53%.
With CC(=O)N1CCCC1c1cncc(Oc2ccc(F)cc2)n1 (stereo not shown) the screen gave -6.651%.
With [H][C@@]12C[C@@H](OCc3ccccc3)C[C@]1([H])CN(Cc1cnc(C)nc1)C2 the screen gave -9.764%.
With NC(=O)c1cnn2c1NCC(CNCCCc1ccccc1)C2 (stereo not shown) the screen gave -16.49%.
With [H][C@@]12CN(S(C)(=O)=O)C[C@]1(C(=O)NC)CCC21CCN(C(C)=O)CC1 the screen gave 1.321%.
With O=S(=O)(NC1CCOC1)c1ccc(C(F)(F)F)nc1 (stereo not shown) the screen gave -3.033%.